Experimental data: PubChem BioAssay AID1259425 (University of Nebraska Medical Center, 2018)

Assay: 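Compare each knockdown with KSR1 silencing using changes in marker transcripts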 (primary screen)
System: HCT116 human colon cancer cells
Knock-down reagent: siRNA pool against human genes, 50 nM siRNA
Measured: 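After 50 nM siRNA pool, branched-DNA assay measures six marker transcripts per well, minus blank, normalised to the geometric mean of two housekeeping transcripts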
Reading the numbers: BNIP3L mRNA: higher = more BNIP3L transcript after knockdown; NDRG1 mRNA: higher = more NDRG1 transcript after knockdown
Shown is one part, drawn at random, of about 14,000 reagents tested. Further read-outs or replicates are left out here. Not given: the time to read-out.

TFEB (transcription factor EB): BNIP3L mRNA, set 1 = 0.101; NDRG1 mRNA, set 1 = 0.089
WDR25 (WD repeat domain 25): BNIP3L mRNA, set 1 = 0.0957; NDRG1 mRNA, set 1 = 0.369
MYH10 (myosin heavy chain 10): BNIP3L mRNA, set 1 = 0.0933; NDRG1 mRNA, set 1 = 0.206
VPS53 (VPS53 subunit of GARP complex): BNIP3L mRNA, set 1 = 0.149; NDRG1 mRNA, set 1 = 0.297
TIMM22 (translocase of inner mitochondrial membrane 22): BNIP3L mRNA, set 1 = 0.0854; NDRG1 mRNA, set 1 = 0.167
OS9 (OS9 endoplasmic reticulum lectin): BNIP3L mRNA, set 1 = 0.103; NDRG1 mRNA, set 1 = 0.0708
GPR158 (G protein-coupled receptor 158): BNIP3L mRNA, set 1 = 0.201; NDRG1 mRNA, set 1 = 0.256
CA3 (carbonic anhydrase 3): BNIP3L mRNA, set 1 = 0.0701; NDRG1 mRNA, set 1 = 0.0949
ZNF19 (zinc finger protein 19): BNIP3L mRNA, set 1 = 0.112; NDRG1 mRNA, set 1 = 0.217
CHPF2 (chondroitin polymerizing factor 2): BNIP3L mRNA, set 1 = 0.218; NDRG1 mRNA, set 1 = 0.242
ZNF142 (zinc finger protein 142): BNIP3L mRNA, set 1 = 0.316; NDRG1 mRNA, set 1 = 0.376
RPA3 (replication protein A3): BNIP3L mRNA, set 1 = 0.125; NDRG1 mRNA, set 1 = 0.404
PCDH11X (protocadherin 11 X-linked): BNIP3L mRNA, set 1 = 0.101; NDRG1 mRNA, set 1 = 0.242
PRMT8 (protein arginine methyltransferase 8): BNIP3L mRNA, set 1 = 0.174; NDRG1 mRNA, set 1 = 0.144
FAM135A (family with sequence similarity 135 member A): BNIP3L mRNA, set 1 = 0.109; NDRG1 mRNA, set 1 = 0.21
GRID2 (glutamate ionotropic receptor delta type subunit 2): BNIP3L mRNA, set 1 = 0.0663; NDRG1 mRNA, set 1 = 0.122

The list goes on, starting with the last 5 of the part before.
RPA3 (replication protein A3): BNIP3L mRNA, set 1 = 0.125; NDRG1 mRNA, set 1 = 0.404
PCDH11X (protocadherin 11 X-linked): BNIP3L mRNA, set 1 = 0.101; NDRG1 mRNA, set 1 = 0.242
PRMT8 (protein arginine methyltransferase 8): BNIP3L mRNA, set 1 = 0.174; NDRG1 mRNA, set 1 = 0.144
FAM135A (family with sequence similarity 135 member A): BNIP3L mRNA, set 1 = 0.109; NDRG1 mRNA, set 1 = 0.21
GRID2 (glutamate ionotropic receptor delta type subunit 2): BNIP3L mRNA, set 1 = 0.0663; NDRG1 mRNA, set 1 = 0.122
TRIM2 (tripartite motif containing 2): BNIP3L mRNA, set 1 = 0.0895; NDRG1 mRNA, set 1 = 0.445
HLA-DRB5 (major histocompatibility complex, class II, DR beta 5): BNIP3L mRNA, set 1 = 0.0684; NDRG1 mRNA, set 1 = 0.143
RASSF2 (Ras association domain family member 2): BNIP3L mRNA, set 1 = 0.0602; NDRG1 mRNA, set 1 = 0.414
OAZ2 (ornithine decarboxylase antizyme 2): BNIP3L mRNA, set 1 = 0.0589; NDRG1 mRNA, set 1 = 0.135
BZW2 (basic leucine zipper and W2 domains 2): BNIP3L mRNA, set 1 = 0.114; NDRG1 mRNA, set 1 = 0.0871
DENND2A (DENN domain containing 2A): BNIP3L mRNA, set 1 = 0.135; NDRG1 mRNA, set 1 = 0.178
SYT15 (synaptotagmin 15): BNIP3L mRNA, set 1 = 0.431; NDRG1 mRNA, set 1 = 0.338
FBXL5 (F-box and leucine rich repeat protein 5): BNIP3L mRNA, set 1 = 0.0553; NDRG1 mRNA, set 1 = 0.294
TLN1 (talin 1): BNIP3L mRNA, set 1 = 0.225; NDRG1 mRNA, set 1 = 0.267
H2AC4 (H2A clustered histone 4): BNIP3L mRNA, set 1 = 0.0635; NDRG1 mRNA, set 1 = 0.926
TBX15 (T-box transcription factor 15): BNIP3L mRNA, set 1 = 0.093; NDRG1 mRNA, set 1 = 0.674
TOP2A (DNA topoisomerase II alpha): BNIP3L mRNA, set 1 = 0.101; NDRG1 mRNA, set 1 = 0.299
F12 (coagulation factor XII): BNIP3L mRNA, set 1 = 0.28; NDRG1 mRNA, set 1 = 0.185
FSCN2 (fascin actin-bundling protein 2, retinal): BNIP3L mRNA, set 1 = 0.117; NDRG1 mRNA, set 1 = 0.0705
TOB2 (transducer of ERBB2, 2): BNIP3L mRNA, set 1 = 0.107; NDRG1 mRNA, set 1 = 0.158
HMMR (hyaluronan mediated motility receptor): BNIP3L mRNA, set 1 = 0.094; NDRG1 mRNA, set 1 = 0.0692
CAPZA1 (capping actin protein of muscle Z-line subunit alpha 1): BNIP3L mRNA, set 1 = 0.121; NDRG1 mRNA, set 1 = 0.0808
GJA3 (gap junction protein alpha 3): BNIP3L mRNA, set 1 = 0.267; NDRG1 mRNA, set 1 = 1.41
FZD8 (frizzled class receptor 8): BNIP3L mRNA, set 1 = 0.103; NDRG1 mRNA, set 1 = 0.245
CNTN2 (contactin 2): BNIP3L mRNA, set 1 = 0.609; NDRG1 mRNA, set 1 = 0.677
